The text below walks through data of article PMC11050395.

Protein sequences, listed by entry. Tags and fused reporters are not part of them. Lines headed by an entry give the natural chain unless they say otherwise; changes in a name come on top.
UniProt P19367: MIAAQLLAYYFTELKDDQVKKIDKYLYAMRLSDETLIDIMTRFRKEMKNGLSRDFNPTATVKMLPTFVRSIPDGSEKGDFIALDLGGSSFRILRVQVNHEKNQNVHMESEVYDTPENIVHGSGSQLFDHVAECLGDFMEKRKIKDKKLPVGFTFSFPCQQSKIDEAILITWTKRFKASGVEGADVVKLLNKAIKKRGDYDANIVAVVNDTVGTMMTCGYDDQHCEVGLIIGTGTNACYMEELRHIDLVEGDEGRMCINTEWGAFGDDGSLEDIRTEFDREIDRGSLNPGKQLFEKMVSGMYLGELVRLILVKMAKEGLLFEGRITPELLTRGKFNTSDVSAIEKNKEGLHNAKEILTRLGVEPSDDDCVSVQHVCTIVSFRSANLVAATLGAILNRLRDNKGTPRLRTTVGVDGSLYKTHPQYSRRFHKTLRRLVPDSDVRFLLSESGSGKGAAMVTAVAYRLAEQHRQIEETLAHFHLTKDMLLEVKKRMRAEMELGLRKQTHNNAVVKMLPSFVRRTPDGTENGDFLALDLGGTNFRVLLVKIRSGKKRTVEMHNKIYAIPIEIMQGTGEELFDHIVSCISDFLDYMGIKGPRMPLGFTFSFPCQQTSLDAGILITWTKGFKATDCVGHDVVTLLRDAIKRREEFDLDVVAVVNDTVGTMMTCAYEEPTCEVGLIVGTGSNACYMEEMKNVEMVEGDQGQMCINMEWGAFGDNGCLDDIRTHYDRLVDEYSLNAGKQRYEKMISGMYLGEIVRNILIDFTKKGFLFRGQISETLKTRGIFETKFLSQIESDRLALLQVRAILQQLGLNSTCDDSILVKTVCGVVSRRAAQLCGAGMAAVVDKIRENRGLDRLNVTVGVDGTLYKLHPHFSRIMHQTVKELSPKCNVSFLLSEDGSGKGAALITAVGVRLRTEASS
UniProt P21796: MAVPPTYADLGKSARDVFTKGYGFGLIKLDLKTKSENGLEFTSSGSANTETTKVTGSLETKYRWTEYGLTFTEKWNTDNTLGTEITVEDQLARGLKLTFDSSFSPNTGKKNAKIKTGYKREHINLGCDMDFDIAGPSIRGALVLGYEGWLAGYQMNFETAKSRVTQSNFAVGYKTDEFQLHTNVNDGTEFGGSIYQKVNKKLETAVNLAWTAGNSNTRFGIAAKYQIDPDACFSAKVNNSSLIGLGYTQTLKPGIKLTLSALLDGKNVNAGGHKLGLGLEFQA

Results are given in words; binding and its absence hold for the method and conditions named. In cells and extracts the contact can be indirect. Binding calls can cover weak binding; strength is not graded here.

This test addresses wild-type Hexokinase 1 with a C-terminal Flag tag (HKI-wt) (human) (UniProt P19367). Kind of test: co-IP; HEK293T cells transfected with Flag-tagged HKI-wt or HKI-mut, lysed 48 h after transfection (Tris HCl 0.5 M pH 8, NaCl 0.1 M, EDTA 2 mM, Triton 0.1%); IP with anti-Flag antibody on Dynabeads Protein G; Western blot for VDAC. A general note: In western blotting, separated proteins are transferred to a membrane and probed.

As for “Voltage-Dependent Anion Channel-1 (VDAC) (from UniProt P21796 1-283)”, the binding result is “binds”.
